Data as given in doi:10.1101/2023.08.20.554024.
Results are given in words; binding and its absence hold for the method and conditions named. Some binding calls cover weakened binding; strength is not graded here.

Biological target: T1, SynOCP1 WT apoform (Synechocystis sp. PCC 6803) (UniProt P74102)
T1 sequence: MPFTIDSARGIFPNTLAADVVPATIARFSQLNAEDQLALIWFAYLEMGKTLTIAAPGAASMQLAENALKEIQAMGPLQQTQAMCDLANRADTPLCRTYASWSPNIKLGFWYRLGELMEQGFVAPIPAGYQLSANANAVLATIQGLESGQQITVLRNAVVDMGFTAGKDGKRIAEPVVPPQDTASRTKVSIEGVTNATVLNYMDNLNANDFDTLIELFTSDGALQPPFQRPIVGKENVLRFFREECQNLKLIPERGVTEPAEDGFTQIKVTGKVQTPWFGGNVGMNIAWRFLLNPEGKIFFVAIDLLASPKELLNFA
Test: SEC

B1: Fluorescence Recovery Protein from Synechocystis sp. PCC 6803 (protein, UniProt P74103 1-109)
chain: MLQTAEAPWSQAETQSAHALFRKAYQRELDGLLATVQAQASQITQIDDLWKLHDFLSAKRHEIDGKYDDRQSVIIFVFAQLLKEGLVQAEELTFLAADKQSKIKALARL
For B1, the binding was “binds”.
